From the supplement of paper PMC12819154, “High-throughput peptide-centric local stability assay extends protein–ligand identification to membrane proteins, tissues and bacteria” (Nature Structural & Molecular Biology, 2025)
The list shows a part of the results. Most entries show no effect beyond the scatter of the controls.

Chains of the proteins cited; added tags and fusions are not shown. Lines headed by an entry give the natural chain unless they say otherwise; changes in a name come on top.
UniProt E7ETH6: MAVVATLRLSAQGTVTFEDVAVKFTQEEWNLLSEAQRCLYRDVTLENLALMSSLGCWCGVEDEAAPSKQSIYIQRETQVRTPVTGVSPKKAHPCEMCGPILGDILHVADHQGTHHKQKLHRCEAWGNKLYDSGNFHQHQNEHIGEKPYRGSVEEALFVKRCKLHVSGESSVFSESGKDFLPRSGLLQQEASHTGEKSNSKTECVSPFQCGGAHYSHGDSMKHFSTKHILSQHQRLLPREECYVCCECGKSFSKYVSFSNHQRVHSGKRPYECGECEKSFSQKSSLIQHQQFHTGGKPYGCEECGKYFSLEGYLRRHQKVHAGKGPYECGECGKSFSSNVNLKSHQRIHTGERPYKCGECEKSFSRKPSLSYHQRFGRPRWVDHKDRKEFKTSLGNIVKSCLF
UniProt O15054, whole entry: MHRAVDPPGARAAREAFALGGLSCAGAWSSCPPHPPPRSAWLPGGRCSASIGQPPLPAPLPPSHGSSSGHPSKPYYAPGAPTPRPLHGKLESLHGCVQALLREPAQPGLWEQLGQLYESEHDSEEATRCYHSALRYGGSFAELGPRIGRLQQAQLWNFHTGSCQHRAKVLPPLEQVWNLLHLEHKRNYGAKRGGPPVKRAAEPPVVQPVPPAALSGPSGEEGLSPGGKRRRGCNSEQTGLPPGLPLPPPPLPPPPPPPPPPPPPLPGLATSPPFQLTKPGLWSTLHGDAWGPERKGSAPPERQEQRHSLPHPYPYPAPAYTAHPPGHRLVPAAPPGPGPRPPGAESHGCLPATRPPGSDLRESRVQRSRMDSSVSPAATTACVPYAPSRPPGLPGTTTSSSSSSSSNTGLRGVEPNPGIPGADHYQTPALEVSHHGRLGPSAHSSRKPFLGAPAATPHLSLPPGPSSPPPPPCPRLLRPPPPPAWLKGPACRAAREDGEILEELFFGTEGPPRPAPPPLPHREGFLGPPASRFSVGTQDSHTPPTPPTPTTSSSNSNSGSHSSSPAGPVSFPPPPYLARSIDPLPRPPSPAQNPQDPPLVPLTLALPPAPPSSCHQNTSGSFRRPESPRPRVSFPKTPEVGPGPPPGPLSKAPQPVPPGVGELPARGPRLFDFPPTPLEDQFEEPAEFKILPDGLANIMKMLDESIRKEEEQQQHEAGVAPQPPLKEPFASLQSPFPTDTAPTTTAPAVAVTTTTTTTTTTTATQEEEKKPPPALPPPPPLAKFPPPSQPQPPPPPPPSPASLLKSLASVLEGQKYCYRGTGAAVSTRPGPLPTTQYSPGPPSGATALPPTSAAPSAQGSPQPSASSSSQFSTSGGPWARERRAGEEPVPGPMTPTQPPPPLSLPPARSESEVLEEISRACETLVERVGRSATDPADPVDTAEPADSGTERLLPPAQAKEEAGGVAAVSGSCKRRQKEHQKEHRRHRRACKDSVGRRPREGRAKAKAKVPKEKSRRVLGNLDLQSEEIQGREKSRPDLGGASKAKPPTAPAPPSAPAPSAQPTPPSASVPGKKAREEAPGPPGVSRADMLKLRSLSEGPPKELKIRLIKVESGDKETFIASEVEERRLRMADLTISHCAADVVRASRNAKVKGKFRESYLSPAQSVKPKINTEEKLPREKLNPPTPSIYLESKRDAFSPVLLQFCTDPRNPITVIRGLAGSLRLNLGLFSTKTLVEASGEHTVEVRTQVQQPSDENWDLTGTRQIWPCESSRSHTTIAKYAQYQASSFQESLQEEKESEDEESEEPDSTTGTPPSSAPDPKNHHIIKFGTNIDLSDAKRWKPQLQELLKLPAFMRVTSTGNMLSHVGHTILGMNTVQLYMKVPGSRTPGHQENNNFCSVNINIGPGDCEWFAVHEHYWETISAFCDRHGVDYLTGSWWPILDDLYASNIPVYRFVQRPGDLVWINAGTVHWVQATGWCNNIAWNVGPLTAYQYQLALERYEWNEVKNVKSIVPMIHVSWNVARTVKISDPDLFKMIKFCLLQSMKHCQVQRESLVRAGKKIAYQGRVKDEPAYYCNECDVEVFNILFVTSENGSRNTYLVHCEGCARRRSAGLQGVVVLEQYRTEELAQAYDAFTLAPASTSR
UniProt O00255, whole entry: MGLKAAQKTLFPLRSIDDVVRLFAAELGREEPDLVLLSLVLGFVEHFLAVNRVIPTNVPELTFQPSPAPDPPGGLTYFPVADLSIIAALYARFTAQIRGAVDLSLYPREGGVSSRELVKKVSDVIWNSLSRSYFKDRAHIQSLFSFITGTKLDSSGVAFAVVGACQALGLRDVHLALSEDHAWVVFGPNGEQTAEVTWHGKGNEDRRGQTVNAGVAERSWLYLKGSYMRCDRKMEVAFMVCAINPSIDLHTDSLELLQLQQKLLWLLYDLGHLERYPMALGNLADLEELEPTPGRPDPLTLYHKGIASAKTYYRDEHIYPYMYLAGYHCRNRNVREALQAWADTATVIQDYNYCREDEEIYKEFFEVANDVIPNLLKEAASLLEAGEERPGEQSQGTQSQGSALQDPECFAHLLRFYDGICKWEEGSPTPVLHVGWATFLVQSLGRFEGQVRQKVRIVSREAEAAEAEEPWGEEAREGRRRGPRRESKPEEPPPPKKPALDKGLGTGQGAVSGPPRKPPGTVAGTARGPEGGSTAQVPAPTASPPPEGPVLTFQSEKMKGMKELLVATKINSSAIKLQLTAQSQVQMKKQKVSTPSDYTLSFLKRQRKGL
UniProt A8MT69: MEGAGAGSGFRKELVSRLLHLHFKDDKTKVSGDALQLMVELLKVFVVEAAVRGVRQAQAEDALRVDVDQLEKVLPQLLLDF
UniProt O00399, whole entry: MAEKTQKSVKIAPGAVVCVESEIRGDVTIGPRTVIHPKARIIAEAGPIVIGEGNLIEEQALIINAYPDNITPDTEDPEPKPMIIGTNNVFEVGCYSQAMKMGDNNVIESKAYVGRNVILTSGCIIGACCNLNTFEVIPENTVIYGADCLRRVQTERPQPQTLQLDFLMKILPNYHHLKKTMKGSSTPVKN
UniProt O00483, whole entry: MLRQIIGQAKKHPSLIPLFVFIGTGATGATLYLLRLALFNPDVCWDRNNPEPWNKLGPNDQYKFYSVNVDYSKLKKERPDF
UniProt O14948: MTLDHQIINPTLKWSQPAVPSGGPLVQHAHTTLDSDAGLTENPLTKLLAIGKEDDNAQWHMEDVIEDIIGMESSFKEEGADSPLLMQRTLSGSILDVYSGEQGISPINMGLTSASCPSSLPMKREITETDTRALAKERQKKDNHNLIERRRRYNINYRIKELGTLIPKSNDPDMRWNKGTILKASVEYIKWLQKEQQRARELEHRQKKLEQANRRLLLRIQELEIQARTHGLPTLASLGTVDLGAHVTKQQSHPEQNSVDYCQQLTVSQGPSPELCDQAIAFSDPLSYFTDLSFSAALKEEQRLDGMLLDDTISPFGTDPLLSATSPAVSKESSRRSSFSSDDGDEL
UniProt O14933: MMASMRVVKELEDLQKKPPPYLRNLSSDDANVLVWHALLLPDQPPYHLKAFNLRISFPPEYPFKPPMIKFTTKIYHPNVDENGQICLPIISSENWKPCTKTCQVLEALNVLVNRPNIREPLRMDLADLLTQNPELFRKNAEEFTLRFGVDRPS
UniProt O14841: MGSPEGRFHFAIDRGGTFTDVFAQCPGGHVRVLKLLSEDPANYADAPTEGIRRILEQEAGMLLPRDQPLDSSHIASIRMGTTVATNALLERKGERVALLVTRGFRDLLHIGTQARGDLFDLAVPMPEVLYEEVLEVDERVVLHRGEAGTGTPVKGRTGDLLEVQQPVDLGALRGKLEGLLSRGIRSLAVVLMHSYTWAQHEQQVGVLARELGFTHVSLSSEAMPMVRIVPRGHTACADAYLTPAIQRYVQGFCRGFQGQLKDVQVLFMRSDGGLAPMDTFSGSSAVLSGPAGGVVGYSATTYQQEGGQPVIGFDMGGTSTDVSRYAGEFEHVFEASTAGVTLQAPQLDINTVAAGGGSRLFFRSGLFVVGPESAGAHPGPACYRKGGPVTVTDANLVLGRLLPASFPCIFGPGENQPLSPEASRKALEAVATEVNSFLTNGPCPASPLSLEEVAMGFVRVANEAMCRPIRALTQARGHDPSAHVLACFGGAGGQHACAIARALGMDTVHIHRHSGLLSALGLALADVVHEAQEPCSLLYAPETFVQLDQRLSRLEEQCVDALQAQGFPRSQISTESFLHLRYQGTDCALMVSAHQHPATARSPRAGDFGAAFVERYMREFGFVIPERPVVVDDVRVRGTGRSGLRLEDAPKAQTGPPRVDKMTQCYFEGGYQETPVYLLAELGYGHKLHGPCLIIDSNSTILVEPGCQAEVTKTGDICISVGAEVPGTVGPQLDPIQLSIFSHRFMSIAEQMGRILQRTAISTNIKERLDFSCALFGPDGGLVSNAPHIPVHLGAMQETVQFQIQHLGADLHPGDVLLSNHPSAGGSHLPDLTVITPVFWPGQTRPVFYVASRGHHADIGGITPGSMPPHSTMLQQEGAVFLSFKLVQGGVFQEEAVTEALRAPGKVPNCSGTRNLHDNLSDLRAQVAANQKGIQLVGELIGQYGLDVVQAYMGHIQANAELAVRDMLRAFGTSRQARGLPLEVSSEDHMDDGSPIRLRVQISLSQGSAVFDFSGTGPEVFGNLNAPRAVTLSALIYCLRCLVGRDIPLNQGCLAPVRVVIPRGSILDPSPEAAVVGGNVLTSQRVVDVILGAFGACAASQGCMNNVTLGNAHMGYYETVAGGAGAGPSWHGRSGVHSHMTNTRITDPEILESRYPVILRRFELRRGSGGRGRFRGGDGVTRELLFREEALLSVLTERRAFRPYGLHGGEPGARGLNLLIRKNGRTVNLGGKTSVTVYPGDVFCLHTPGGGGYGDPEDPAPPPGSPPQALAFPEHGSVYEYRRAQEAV
UniProt O14715, whole entry: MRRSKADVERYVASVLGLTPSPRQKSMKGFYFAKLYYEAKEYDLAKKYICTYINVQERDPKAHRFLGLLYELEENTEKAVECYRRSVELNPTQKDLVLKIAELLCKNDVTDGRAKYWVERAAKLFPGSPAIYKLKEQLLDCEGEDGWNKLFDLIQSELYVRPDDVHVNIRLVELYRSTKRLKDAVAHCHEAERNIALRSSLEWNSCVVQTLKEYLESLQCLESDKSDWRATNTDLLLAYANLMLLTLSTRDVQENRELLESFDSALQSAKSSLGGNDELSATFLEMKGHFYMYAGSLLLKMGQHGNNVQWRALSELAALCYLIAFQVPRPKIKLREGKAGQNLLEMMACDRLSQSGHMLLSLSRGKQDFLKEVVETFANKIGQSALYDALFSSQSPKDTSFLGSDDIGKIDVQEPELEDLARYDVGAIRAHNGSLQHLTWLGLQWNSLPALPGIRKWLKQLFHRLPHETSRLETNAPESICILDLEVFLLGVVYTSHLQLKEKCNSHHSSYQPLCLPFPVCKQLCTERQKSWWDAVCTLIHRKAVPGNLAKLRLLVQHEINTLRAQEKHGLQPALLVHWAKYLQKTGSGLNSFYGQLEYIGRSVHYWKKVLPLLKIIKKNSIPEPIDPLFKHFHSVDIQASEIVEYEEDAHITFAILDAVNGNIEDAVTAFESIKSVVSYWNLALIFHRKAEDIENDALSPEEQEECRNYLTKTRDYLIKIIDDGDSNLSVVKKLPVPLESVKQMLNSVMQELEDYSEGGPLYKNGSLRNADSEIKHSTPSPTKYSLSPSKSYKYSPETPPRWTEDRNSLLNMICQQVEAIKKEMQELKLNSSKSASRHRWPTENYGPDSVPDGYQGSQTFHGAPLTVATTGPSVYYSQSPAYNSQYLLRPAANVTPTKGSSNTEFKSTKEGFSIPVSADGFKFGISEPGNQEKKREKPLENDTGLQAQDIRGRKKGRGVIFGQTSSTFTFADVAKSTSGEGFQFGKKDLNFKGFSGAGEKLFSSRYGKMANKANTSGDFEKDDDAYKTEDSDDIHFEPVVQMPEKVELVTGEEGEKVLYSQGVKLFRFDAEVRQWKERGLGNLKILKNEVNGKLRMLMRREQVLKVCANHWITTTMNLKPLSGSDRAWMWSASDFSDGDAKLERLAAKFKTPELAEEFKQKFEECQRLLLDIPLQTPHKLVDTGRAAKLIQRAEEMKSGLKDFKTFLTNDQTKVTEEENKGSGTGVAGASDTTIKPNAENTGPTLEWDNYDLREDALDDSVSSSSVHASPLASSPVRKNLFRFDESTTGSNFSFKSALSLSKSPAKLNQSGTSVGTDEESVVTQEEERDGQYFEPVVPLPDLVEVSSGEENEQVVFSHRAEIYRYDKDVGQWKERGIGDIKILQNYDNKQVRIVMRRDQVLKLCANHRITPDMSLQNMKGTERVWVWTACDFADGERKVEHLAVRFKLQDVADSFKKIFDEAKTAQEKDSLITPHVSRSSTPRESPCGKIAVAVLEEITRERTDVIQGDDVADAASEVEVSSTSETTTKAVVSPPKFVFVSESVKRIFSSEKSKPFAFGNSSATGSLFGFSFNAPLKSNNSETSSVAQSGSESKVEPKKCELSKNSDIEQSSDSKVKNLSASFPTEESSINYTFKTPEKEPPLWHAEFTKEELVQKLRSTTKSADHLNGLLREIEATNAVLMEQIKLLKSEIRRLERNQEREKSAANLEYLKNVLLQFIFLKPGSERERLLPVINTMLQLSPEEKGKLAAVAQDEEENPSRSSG

Compound: Cc1nc(Nc2ncc(C(=O)Nc3c(C)cccc3Cl)s2)cc(N2CCN(CCO)CC2)n1 [dasatinib]
Test: log2 fold change of tryptic peptide abundance, ligand vs vehicle (limited proteolysis) (log2 ratio); higher = more trypsin-susceptible (destabilized)
Settings: ligand concentration: 5 uM; sample: K562 cleared lysate

| Target | log2 fold change |
| --- | --- |
| UniProt E7ETH6 (peptide sequence: TECVSPFQCGGAHYSHGDSMK, peptide start residue: 201) | -0.203 |
| UniProt O15054 (peptide sequence: LGPSAHSSR, peptide start residue: 438) | -0.58 |
| MEN1 (peptide sequence: GQTVNAGVAER, peptide start residue: 213) (UniProt O00255) | 0.162 |
| CENPX (peptide sequence: VFVVEAAVR, peptide start residue: 44) (UniProt A8MT69) | -0.194 |
| DCTN6 (peptide sequence: ILPNYHHLKK, peptide start residue: 170) (UniProt O00399) | -0.0545 |
| UniProt L0R819 (peptide sequence: NILDELKK, peptide start residue: 74) | -0.0837 |
| ZNF593 (peptide sequence: AAGMGSYVPPR, peptide start residue: 105) (UniProt O00488) | 0.455 |
| ARPC2 (peptide sequence: VFMQEFK, peptide start residue: 180) (UniProt O15144) | -0.0981 |
| BIN1 (peptide sequence: VNHEPEPAGGATPGATLPK, peptide start residue: 312) (UniProt O00499) | -0.14 |
| TNFRSF10B (peptide sequence: QKIEDHLLSSGK, peptide start residue: 416) (UniProt O14763) | 0.316 |
| NDUFA4 (peptide sequence: LGPNDQYK, peptide start residue: 56) (UniProt O00483) | -0.0691 |
| UniProt O14948 (peptide sequence: IKELGTLIPK, peptide start residue: 331) | 0.247 |
| UBE2L6 (peptide sequence: NAEEFTLR, peptide start residue: 139) (UniProt O14933) | 0.142 |
| OPLAH (peptide sequence: YVQGFCR, peptide start residue: 248) (UniProt O14841) | -0.461 |
| UniProt O14715 (peptide sequence: KYICTYINVQER, peptide start residue: 47) | -0.222 |

2 entries picked at random from the list so far, as already listed:

| Target | log2 fold change |
| --- | --- |
| OPLAH (peptide sequence: YVQGFCR, peptide start residue: 248) (UniProt O14841) | -0.461 |
| ZNF593 (peptide sequence: AAGMGSYVPPR, peptide start residue: 105) (UniProt O00488) | 0.455 |
